Assay results as given in paper PMC8371905.
No constants are given. Whether binding was seen depends on the method and setting. For part of these data: In cells and extracts the contact can be indirect. Some binding calls cover weakened binding; strength is not graded here.

By UniProt entry, the sequences of proteins in these tests, tags left out. Residues count along the entry.
UniProt Q96PZ7, residues 27-3564: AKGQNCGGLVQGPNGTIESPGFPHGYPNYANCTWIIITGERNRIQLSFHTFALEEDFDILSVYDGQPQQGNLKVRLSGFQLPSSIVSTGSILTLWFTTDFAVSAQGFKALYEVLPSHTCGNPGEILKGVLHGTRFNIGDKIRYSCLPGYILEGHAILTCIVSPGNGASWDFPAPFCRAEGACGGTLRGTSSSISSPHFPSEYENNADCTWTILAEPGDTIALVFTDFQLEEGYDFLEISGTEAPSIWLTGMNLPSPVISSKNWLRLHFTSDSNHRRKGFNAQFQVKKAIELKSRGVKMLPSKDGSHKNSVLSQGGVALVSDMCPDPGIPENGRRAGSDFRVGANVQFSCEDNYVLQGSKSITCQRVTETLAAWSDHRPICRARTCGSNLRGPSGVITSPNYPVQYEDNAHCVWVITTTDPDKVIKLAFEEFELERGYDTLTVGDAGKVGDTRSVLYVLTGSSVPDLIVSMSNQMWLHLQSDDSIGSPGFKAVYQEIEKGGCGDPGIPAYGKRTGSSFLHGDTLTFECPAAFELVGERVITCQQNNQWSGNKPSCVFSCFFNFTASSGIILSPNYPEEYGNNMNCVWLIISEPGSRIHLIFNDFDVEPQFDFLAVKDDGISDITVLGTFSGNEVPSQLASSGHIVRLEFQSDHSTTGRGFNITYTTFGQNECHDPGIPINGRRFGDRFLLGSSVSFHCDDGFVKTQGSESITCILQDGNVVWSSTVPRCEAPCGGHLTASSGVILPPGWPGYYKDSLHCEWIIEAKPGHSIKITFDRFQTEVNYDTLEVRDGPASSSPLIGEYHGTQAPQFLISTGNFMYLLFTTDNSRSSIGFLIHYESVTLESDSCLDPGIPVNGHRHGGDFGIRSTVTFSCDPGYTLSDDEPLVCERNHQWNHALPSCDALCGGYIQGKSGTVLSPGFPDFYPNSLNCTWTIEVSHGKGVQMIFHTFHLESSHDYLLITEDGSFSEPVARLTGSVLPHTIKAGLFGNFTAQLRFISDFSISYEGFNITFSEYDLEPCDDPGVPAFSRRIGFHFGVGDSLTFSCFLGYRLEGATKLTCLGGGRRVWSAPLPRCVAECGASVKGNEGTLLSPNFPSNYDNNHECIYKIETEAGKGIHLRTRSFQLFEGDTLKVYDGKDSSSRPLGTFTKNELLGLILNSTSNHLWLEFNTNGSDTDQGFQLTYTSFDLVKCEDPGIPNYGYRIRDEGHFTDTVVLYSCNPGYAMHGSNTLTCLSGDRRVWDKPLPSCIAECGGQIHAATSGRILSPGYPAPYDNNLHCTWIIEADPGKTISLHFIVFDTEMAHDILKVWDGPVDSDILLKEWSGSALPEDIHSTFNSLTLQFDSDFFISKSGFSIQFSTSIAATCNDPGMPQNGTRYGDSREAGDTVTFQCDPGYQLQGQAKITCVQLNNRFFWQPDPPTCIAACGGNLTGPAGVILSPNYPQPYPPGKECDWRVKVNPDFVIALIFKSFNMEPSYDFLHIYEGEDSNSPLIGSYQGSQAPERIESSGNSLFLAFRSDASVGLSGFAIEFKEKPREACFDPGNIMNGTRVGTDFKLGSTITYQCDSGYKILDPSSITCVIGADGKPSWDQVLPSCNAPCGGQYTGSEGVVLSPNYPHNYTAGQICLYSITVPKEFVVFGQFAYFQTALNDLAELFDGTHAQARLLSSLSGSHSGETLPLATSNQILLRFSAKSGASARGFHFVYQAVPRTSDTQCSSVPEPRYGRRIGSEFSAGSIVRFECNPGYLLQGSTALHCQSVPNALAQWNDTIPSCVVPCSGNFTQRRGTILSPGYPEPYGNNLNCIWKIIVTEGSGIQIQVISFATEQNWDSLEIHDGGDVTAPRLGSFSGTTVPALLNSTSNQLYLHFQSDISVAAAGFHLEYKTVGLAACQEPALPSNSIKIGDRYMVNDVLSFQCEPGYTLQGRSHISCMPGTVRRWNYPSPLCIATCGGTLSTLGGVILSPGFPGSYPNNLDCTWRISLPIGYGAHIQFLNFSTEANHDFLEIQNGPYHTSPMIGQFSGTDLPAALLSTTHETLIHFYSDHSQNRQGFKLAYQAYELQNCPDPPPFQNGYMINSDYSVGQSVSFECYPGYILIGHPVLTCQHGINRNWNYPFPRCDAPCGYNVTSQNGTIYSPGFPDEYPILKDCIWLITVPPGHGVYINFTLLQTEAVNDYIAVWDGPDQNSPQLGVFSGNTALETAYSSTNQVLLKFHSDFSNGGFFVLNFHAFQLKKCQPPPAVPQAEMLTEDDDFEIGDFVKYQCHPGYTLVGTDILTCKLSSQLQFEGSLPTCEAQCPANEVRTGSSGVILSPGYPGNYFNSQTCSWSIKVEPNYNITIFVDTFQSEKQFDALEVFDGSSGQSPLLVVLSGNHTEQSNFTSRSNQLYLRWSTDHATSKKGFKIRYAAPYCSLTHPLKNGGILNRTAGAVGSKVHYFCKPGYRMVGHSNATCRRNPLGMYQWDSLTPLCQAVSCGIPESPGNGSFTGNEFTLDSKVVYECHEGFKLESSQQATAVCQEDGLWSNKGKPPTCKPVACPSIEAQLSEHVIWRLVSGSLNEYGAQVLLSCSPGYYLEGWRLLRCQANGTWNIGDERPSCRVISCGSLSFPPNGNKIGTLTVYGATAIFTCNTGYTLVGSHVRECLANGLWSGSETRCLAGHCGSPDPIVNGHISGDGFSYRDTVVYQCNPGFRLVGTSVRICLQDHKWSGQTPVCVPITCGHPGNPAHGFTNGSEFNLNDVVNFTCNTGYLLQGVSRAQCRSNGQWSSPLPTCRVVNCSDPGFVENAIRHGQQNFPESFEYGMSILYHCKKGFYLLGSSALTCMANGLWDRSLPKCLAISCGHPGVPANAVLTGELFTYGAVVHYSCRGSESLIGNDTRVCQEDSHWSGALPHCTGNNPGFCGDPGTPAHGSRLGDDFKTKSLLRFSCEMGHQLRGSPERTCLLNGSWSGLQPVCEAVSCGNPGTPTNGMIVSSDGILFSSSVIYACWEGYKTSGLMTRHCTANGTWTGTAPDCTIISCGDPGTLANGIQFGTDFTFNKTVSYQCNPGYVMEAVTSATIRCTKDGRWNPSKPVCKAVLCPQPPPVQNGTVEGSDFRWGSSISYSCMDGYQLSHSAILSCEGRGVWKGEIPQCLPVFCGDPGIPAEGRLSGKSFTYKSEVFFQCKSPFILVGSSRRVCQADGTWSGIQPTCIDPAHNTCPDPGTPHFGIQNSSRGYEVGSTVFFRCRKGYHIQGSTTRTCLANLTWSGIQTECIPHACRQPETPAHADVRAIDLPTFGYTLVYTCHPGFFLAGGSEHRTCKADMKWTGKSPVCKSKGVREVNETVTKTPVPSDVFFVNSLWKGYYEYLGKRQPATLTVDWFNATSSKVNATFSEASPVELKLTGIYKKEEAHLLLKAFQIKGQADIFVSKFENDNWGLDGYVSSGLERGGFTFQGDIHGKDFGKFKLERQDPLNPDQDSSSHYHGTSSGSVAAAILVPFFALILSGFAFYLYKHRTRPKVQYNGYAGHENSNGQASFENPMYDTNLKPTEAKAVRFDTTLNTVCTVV

Columns and labels:
[1] = molecular target: Human CUB and Sushi multiple domains 1 (CSMD1) (human) (UniProt Q96PZ7); experiment: co-IP; BT-20 cell lysates immunoprecipitated with anti-CSMD1 or corresponding IgG control, immunodetection of EGFR and CSMD1
[2] = molecular target: Human CUB and Sushi multiple domains 1 (CSMD1) (human) (UniProt Q96PZ7); experiment: co-IP; MDA-MB-231 CTRL and CSMD1 cell lysates in minimally denaturing conditions; 1 mg total protein, Protein G or A Dynabeads pre-coated with 5 ug capturing antibody (anti-EGFR or anti-CSMD1, isotype IgG control), overnight, washed with NP40 buffer; Western blot
[3] = molecular target: Myc-tagged intracellular domain of EGFR (ICD), pcDNA6A-EGFR ICD (645–1186) (UniProt P00533); experiment: ELISA; anti-c-myc capturing antibody immobilised, incubated with lysates of MDA-MB-231 CTRL and CSMD1 cells transiently transfected with Myc-ECD-EGFR or Myc-ICD-EGFR, detected with anti-CSMD1 antibody; two CSMD1 clones
[4] = molecular target: Epidermal Growth Factor Receptor (EGFR) (human (endogenous in MDA-MB-231 and BT-20)) (UniProt P00533); experiment: ELISA; anti-EGFR antibody immobilised to capture EGFR complexes from MDA-MB-231 lysates (non-denatured conditions), detected with anti-CSMD1 antibody; two CSMD1 clones
[5] = molecular target: Epidermal Growth Factor Receptor (EGFR) (human (endogenous in MDA-MB-231 and BT-20)) (UniProt P00533); experiment: co-IP; MDA-MB-231 CTRL and CSMD1 cell lysates in minimally denaturing conditions; 1 mg total protein, Protein G or A Dynabeads pre-coated with 5 ug capturing antibody (anti-EGFR or anti-CSMD1, isotype IgG control), overnight, washed with NP40 buffer; Western blot
[6] = molecular target: Epidermal Growth Factor Receptor (EGFR) (human (endogenous in MDA-MB-231 and BT-20)) (UniProt P00533); experiment: proximity ligation; Dual link kit (Sigma) on fixed (4% formaldehyde), permeabilised (0.1% Triton X-100) MDA-MB-231 CTRL and CSMD1 cells; anti-CSMD1 and anti-EGFR antibodies; dots per cell counted

Measured: binding

Epidermal Growth Factor Receptor (EGFR) (from UniProt P00533 25-1210)
binds: [1] | [2]

Human CUB and Sushi multiple domains 1 (CSMD1) (from UniProt Q96PZ7 27-3564)
binds: [3] | [4] | [5] | [6]
